Data as given in PubChem BioAssay AID602196 (INSERM, 2012)
This is a random part of about 23,000 reagents tested. 455 of all reagents (2%) were called active. 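Active includes both protection and sensitisation; some change values fall well beyond the stated -50 to +50 range.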 A number with no mark means an inactive call. Reagents against one gene are numbered here. Not all columns of the deposit are shown. Reagent sequences are not shown. The record does not give: the amount of reagent.

- Aim: 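Modifiers of cisplatin sensitivity in A549 cells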
- System: human A549 lung cancer cells
- Reagents: siRNA pair against human genes
- Timing: 48 h transfection before cisplatin; time from cisplatin to read-out not stated
- Conditions: cisplatin at a dose killing half of control-siRNA cells; exact dose and duration not given
- Read-out: 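Shift in cisplatin death relative to control siRNA, from -50 (all cells die) to +50 (no cells die); siRNAs harmful on their own scored 0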
- Reading the numbers: two-siRNA summed score (-2 to +2): higher = both siRNAs protect from cisplatin killing; -2 means both sensitise
- Rule for the call: 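Each siRNA scores 0 if harmful alone by LDH or WST-1, otherwise +1 if it reduces and -1 if it increases cisplatin killing; a gene is active when both siRNAs agree (sum +2 or -2)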
- Calls: active = both siRNAs shift cisplatin killing the same way; inactive = no consistent shift, or siRNA harmful alone

two-siRNA summed score (-2 to +2)	gene knocked down	reagent no.
0	PLSCR2 (phospholipid scramblase 2)	1
0	LOC388915	1
0	LOC401510	1
0	CACNG4 (calcium voltage-gated channel auxiliary subunit gamma 4)	1
0	ANXA11 (annexin A11)	1
0	CDC14A (cell division cycle 14A)	1
0	CXXC5 (CXXC finger protein 5)	1
0	SPPL2A (signal peptide peptidase like 2A)	1
0	NEFL (neurofilament light chain)	1
-1	EPHA10 (EPH receptor A10)	1
-1	LOC342659	1
0	NOSTRIN (nitric oxide synthase trafficking)	1
1	LOC402418	1
-1	ZRANB2 (zinc finger RANBP2-type containing 2)	1
1	LOC441861	1
0	LOC441383	1
0	DNAJC12 (DnaJ heat shock protein family (Hsp40) member C12)	1
0	TLCD5 (TLC domain containing 5)	1
0	RFXANK (regulatory factor X associated ankyrin containing protein)	1
0	GIMAP7 (GTPase, IMAP family member 7)	1
1	LOC440488	1
0	ARMCX2 (armadillo repeat containing X-linked 2)	1
1	C3AR1 (complement C3a receptor 1)	1
0	LOC401065	1
2 (active)	LOC402162	1
0	HMGCR (3-hydroxy-3-methylglutaryl-CoA reductase)	1
-1	HEY1	1
0	HSPA2 (heat shock protein family A (Hsp70) member 2)	1
0	NFIX (nuclear factor I X)	1
0	GTF3C6 (general transcription factor IIIC subunit 6)	1
-1	RCVRN (recoverin)	1
-1	CFAP46 (cilia and flagella associated protein 46)	1
0	CFAP46 (cilia and flagella associated protein 46)	2
0	ADAM22 (ADAM metallopeptidase domain 22)	1
0	ZNF397 (zinc finger protein 397)	1
0	RTP1 (receptor transporter protein 1)	1
0	ACVRL1 (activin A receptor like type 1)	1
0	LRRC19 (leucine rich repeat containing 19)	1
0	NOB1 (NIN1 (RPN12) binding protein 1 homolog)	1
1	PSG7 (pregnancy specific beta-1-glycoprotein 7)	1
1	SLC22A1	1
1	LOC401913	1
0	RPL36A (ribosomal protein L36a)	1
0	PDP2 (pyruvate dehydrogenase phosphatase catalytic subunit 2)	1
0	ARL13A (ARF like GTPase 13A)	1
-1	ANXA13 (annexin A13)	1
1	YIPF7 (Yip1 domain family member 7)	1
1	LOC440282	1
0	PGM2L1 (phosphoglucomutase 2 like 1)	1
-1	LRP1B (LDL receptor related protein 1B)	1
0	ZBTB37 (zinc finger and BTB domain containing 37)	1
0	SUMO3 (small ubiquitin like modifier 3)	1
0	ZDHHC8 (zDHHC palmitoyltransferase 8)	1
0	HSBP1 (heat shock factor binding protein 1)	1
-1	DCD (dermcidin)	1
1	DCPS (decapping enzyme, scavenger)	1
0	UNC13C (unc-13 homolog C)	1
